Data taken from paper PMC6230994.
Results are given in words; binding and its absence hold for the method and conditions named. Binding seen in cells or lysates may run through a third protein. Some entries that bind do so weakly or less than the wild type. Sequences can lack the tags named with a protein.

Sequences of proteins named here, by UniProt entry; tags and fusion partners are left off.
UniProt F4JL11: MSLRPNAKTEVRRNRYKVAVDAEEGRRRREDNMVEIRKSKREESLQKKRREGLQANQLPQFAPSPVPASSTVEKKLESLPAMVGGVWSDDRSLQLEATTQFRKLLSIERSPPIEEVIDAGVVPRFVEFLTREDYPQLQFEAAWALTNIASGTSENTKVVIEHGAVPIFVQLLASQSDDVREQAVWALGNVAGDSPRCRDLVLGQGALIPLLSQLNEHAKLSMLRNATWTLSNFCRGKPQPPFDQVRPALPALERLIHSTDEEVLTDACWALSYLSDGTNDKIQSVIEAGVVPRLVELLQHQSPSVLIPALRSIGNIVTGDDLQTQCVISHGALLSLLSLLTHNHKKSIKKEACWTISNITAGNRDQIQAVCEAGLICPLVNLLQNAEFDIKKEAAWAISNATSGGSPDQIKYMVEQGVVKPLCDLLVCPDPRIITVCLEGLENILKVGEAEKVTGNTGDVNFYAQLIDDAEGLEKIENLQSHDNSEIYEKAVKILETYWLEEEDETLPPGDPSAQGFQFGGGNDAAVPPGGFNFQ

Biological target: IMPORTIN-α2:GFP (Arabidopsis thaliana) (UniProt F4JL11)
Experiment: co-IP; GFP-tagged importin-α (or YFP) and RFP-tagged protein co-expressed in N. benthamiana, 72 h; leaf extract in 50 mM Tris, 150 mM NaCl, 10% glycerol, 1 mM EDTA, 5 mM DTT, pH 7.5; precipitated with α-GFP-nanobody:Halo:His6 magnetic beads, 2 h at 4°C; α-RFP western blot

B1: SAP:RFP (PARP2 SAP domains fused to RFP) (domain or fragment, UniProt Q11207 1-127)
chain: MANKLKVDELRLKLAERGLSTTGVKAVLVERLEEAIAEDTKKEESKSKRKRNSSNDTYESNKLIAIGEFRGMIVKELREEAIKRGLDTTGTKKDLLERLCNDANNVSNAPVKSSNGTDEAEDDNNGF
B1 was tested, and the binding was “binds”.
